# Source: the supplement of paper PMC6411743
# ± gives the standard deviation of the averaged measurements. Only a part is listed here, and it is no random draw.
# Assays:
# Test in all cases: NP40-soluble protein abundance relative to vehicle (solubility fold change) (ratio); higher = more soluble protein in presence of AMP-PNP
# [1] = target: T1, GALE (UniProt Q14376)
# T1 sequence (whole entry): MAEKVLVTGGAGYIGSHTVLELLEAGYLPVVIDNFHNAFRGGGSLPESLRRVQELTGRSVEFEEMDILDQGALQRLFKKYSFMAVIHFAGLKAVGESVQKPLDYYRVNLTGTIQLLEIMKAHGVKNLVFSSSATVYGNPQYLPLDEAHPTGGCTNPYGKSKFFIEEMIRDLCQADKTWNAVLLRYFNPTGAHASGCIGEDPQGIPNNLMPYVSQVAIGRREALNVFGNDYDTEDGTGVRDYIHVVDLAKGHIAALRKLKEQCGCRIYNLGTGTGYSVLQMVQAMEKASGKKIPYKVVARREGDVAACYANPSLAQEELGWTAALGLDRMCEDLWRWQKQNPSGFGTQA
# Summary of the method: (§1)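 Jurkat crude lysate prepared with a Dounce homogeniser was treated at eight concentrations spanning 0.1 to 10 mM, 10 min at room temperature then 3 min at 37 °C. Solubilisation with 0.8% NP40 and benzonase and ultracentrifugation preceded TMT labelling of the supernatant for LC-MS/MS. Fold change against the detergent-processed vehicle was determined per replicate from vsn-normalised intensities, across three independent experiments.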
# [2] = target: T2, LAGE3 (UniProt Q14657)
# T2 sequence (whole entry): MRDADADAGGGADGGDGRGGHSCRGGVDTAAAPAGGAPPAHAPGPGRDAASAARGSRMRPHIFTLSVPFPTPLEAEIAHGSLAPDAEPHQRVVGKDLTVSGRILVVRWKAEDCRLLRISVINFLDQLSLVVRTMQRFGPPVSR
# Summary of the method: as §1
# [3] = target: T3, LMAN2 (UniProt Q12907)
# T3 sequence (whole entry): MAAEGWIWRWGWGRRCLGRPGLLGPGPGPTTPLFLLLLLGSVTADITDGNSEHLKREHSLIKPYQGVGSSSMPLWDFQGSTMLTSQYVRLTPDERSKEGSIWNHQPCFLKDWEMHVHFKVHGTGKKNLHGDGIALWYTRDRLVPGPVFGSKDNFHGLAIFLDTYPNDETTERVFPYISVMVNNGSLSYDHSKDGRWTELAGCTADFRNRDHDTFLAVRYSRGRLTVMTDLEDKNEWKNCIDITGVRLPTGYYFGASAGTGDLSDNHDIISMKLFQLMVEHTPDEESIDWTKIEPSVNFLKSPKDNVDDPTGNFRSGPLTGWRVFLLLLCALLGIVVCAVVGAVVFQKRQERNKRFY
# Summary of the method: as §1
# [4] = target: T4, MLLT11 (UniProt Q13015)
# T4 sequence (whole entry): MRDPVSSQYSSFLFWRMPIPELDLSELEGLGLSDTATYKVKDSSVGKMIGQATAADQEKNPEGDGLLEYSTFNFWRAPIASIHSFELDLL
# Summary of the method: as §1
# [5] = target: T5, NPAT (UniProt Q14207)
# T5 sequence (whole entry): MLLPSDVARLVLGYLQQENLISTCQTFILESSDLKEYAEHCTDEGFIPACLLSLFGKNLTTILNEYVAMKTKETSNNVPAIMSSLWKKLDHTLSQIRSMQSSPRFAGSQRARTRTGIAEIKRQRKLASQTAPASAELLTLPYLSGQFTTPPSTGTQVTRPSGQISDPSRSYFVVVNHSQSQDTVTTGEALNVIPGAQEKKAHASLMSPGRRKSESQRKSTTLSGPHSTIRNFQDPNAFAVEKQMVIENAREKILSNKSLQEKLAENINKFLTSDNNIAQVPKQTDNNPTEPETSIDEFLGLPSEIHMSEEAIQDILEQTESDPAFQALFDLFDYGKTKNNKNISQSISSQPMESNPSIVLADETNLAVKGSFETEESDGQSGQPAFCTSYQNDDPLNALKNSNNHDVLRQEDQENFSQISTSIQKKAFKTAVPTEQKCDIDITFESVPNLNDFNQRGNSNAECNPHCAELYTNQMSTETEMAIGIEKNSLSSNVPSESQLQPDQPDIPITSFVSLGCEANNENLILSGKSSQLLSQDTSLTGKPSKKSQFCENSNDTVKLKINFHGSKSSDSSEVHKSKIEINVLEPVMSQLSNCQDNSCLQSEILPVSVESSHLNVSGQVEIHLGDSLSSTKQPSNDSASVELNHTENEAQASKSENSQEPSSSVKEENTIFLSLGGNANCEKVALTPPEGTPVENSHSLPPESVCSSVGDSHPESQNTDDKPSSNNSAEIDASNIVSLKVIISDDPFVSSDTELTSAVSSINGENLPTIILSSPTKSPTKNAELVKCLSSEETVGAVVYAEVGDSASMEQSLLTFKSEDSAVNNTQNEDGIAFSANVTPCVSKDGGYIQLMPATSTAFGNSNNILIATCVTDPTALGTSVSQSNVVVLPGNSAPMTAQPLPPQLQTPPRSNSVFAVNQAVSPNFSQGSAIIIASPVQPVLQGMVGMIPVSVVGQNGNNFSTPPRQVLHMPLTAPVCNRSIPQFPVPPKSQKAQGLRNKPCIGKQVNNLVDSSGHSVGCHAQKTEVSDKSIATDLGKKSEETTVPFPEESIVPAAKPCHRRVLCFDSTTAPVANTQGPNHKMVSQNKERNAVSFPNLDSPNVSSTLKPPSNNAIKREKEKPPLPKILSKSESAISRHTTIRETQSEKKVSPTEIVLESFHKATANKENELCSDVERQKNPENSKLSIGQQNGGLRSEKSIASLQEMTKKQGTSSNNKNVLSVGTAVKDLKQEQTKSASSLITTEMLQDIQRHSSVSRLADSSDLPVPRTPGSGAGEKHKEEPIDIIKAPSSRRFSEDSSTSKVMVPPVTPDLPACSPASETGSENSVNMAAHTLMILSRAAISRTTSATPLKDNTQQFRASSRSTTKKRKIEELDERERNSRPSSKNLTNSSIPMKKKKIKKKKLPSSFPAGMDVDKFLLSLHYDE
# Summary of the method: as §1
# [6] = target: T6, PSMD6 (UniProt Q15008)
# T6 sequence (whole entry): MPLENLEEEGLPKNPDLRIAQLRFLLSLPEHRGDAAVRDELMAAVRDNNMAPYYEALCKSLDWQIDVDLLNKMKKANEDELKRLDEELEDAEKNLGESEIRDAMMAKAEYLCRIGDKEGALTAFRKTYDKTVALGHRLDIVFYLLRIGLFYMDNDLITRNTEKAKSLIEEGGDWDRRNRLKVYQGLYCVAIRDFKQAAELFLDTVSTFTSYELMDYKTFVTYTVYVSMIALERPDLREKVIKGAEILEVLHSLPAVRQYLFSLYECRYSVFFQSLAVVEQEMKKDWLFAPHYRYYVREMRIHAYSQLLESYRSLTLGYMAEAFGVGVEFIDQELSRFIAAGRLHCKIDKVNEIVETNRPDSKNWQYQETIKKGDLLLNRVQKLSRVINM
# Summary of the method: as §1
structure (smiles),measurement,setting,value
Nc1ncnc2c1ncn2[C@@H]1O[C@H](COP(=O)(O)OP(=O)(O)NP(=O)(O)O)[C@@H](O)[C@H]1O [adenylyl imidodiphosphate],NP40-soluble protein abundance,[1]; concentration: 1mM,0.971 ± 0.036
same,NP40-soluble protein abundance,[1]; concentration: 2mM,0.948 ± 0.062
same,NP40-soluble protein abundance,[1]; concentration: 4mM,1.01 ± 0.024
same,NP40-soluble protein abundance,[1]; concentration: 6mM,1.02 ± 0.074
same,NP40-soluble protein abundance,[1]; concentration: 8mM,1.04 ± 0.058
same,NP40-soluble protein abundance,[1]; concentration: 10mM,0.992 ± 0.05
same,NP40-soluble protein abundance,[2]; concentration: 1mM,0.939 ± 0.046
same,NP40-soluble protein abundance,[2]; concentration: 2mM,0.923 ± 0.024
same,NP40-soluble protein abundance,[2]; concentration: 4mM,0.933 ± 0.034
same,NP40-soluble protein abundance,[2]; concentration: 6mM,0.937 ± 0.059
same,NP40-soluble protein abundance,[2]; concentration: 8mM,0.964 ± 0.044
same,NP40-soluble protein abundance,[2]; concentration: 10mM,0.931 ± 0.04
same,NP40-soluble protein abundance,[3]; concentration: 1mM,0.994 ± 0.057
same,NP40-soluble protein abundance,[3]; concentration: 2mM,0.937 ± 0.011
same,NP40-soluble protein abundance,[3]; concentration: 4mM,0.971 ± 0.066
same,NP40-soluble protein abundance,[3]; concentration: 6mM,0.971 ± 0.055
same,NP40-soluble protein abundance,[3]; concentration: 8mM,1.02 ± 0.072
same,NP40-soluble protein abundance,[3]; concentration: 10mM,0.98 ± 0.055
same,NP40-soluble protein abundance,[4]; concentration: 1mM,0.986 ± 0.041
same,NP40-soluble protein abundance,[4]; concentration: 2mM,1.02 ± 0.025
same,NP40-soluble protein abundance,[4]; concentration: 4mM,0.96 ± 0.028
same,NP40-soluble protein abundance,[4]; concentration: 6mM,1 ± 0.048
same,NP40-soluble protein abundance,[4]; concentration: 8mM,0.971 ± 0.034
same,NP40-soluble protein abundance,[4]; concentration: 10mM,0.971 ± 0.04
same,NP40-soluble protein abundance,[5]; concentration: 1mM,1.05 ± 0.023
same,NP40-soluble protein abundance,[5]; concentration: 2mM,1.04 ± 0.031
same,NP40-soluble protein abundance,[5]; concentration: 4mM,1.02 ± 0.011
same,NP40-soluble protein abundance,[5]; concentration: 6mM,0.997 ± 0.047
same,NP40-soluble protein abundance,[5]; concentration: 8mM,0.995 ± 0.03
same,NP40-soluble protein abundance,[5]; concentration: 10mM,1.03 ± 0.017
same,NP40-soluble protein abundance,[6]; concentration: 1mM,0.989 ± 0.034
same,NP40-soluble protein abundance,[6]; concentration: 2mM,0.952 ± 0.062
same,NP40-soluble protein abundance,[6]; concentration: 4mM,0.933 ± 0.067

# Already shown: an excerpt of the list.
structure (smiles),measurement,setting,value
Nc1ncnc2c1ncn2[C@@H]1O[C@H](COP(=O)(O)OP(=O)(O)NP(=O)(O)O)[C@@H](O)[C@H]1O [adenylyl imidodiphosphate],NP40-soluble protein abundance,[3]; concentration: 10mM,0.98 ± 0.055
same,NP40-soluble protein abundance,[4]; concentration: 1mM,0.986 ± 0.041
same,NP40-soluble protein abundance,[4]; concentration: 2mM,1.02 ± 0.025
same,NP40-soluble protein abundance,[4]; concentration: 4mM,0.96 ± 0.028
same,NP40-soluble protein abundance,[4]; concentration: 6mM,1 ± 0.048
same,NP40-soluble protein abundance,[4]; concentration: 8mM,0.971 ± 0.034
